Measurements published in article PMC3962457.
These are yes or no findings as the source states them, for the method shown. Binding seen in cells or lysates may run through a third protein. Some binding calls cover weakened binding; strength is not graded here.

By UniProt entry, the sequences of proteins in these tests, tags left out. Residues count along the entry.
UniProt Q61501: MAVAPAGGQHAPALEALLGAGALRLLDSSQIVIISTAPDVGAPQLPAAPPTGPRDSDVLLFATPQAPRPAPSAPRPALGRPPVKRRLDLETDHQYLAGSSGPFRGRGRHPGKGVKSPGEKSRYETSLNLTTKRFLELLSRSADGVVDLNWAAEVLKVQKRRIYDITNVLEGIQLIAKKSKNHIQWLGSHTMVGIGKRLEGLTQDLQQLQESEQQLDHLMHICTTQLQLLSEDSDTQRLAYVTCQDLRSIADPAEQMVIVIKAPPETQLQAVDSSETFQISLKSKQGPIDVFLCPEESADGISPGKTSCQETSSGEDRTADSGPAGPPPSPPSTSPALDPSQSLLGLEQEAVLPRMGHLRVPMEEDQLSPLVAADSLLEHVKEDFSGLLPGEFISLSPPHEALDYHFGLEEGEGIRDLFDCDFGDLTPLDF
UniProt O09106: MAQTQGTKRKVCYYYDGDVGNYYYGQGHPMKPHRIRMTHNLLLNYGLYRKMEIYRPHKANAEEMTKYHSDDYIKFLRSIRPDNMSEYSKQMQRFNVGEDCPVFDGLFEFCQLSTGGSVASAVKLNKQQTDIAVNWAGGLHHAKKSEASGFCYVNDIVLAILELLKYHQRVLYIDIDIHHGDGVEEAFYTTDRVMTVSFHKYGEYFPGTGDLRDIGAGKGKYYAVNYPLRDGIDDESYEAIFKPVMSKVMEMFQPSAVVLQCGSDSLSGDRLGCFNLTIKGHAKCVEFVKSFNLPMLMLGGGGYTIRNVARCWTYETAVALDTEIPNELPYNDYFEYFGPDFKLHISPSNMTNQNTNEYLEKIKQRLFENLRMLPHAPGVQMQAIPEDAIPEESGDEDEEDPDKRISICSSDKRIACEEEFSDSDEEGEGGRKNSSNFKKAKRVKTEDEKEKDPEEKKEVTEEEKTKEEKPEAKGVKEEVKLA
UniProt P30561, residues 10-848: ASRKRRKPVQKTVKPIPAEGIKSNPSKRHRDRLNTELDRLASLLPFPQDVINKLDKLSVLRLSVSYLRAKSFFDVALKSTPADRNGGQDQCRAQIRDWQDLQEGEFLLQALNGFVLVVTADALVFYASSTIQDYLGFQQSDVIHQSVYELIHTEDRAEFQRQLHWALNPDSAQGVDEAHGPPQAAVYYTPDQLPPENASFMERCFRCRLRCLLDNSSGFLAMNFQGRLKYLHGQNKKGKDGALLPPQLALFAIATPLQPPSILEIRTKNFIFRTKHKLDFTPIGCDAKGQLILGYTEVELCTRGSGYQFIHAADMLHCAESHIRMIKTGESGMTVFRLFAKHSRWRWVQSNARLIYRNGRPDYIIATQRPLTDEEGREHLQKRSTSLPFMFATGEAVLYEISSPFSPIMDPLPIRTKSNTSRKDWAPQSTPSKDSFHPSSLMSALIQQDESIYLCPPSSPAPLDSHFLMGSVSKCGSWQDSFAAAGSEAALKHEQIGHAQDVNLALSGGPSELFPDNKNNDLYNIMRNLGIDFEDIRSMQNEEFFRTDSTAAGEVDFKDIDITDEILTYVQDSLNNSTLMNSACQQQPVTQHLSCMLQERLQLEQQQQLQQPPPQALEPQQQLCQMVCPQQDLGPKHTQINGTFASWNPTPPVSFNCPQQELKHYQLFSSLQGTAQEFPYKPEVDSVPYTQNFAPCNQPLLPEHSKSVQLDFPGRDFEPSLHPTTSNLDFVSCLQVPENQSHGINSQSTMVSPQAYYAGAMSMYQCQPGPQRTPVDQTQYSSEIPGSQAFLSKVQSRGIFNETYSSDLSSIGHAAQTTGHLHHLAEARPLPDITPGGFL

Key:
[1] = target: E2F1 (mouse (endogenous in MCVECs)) (UniProt Q61501); test: co-IP; endogenous proteins from 200 ug of MCVEC protein, anti-pRb2 or anti-E2F1 antibody (2 ug), protein A and G agarose beads, Western blot of the precipitate; cells with or without 100 nM 3MC for 1 h
[2] = target: T1, retinoblastoma 2 (pRb2) (mouse (endogenous in MCVECs)) (UniProt Q64700); test: as above
T1 sequence: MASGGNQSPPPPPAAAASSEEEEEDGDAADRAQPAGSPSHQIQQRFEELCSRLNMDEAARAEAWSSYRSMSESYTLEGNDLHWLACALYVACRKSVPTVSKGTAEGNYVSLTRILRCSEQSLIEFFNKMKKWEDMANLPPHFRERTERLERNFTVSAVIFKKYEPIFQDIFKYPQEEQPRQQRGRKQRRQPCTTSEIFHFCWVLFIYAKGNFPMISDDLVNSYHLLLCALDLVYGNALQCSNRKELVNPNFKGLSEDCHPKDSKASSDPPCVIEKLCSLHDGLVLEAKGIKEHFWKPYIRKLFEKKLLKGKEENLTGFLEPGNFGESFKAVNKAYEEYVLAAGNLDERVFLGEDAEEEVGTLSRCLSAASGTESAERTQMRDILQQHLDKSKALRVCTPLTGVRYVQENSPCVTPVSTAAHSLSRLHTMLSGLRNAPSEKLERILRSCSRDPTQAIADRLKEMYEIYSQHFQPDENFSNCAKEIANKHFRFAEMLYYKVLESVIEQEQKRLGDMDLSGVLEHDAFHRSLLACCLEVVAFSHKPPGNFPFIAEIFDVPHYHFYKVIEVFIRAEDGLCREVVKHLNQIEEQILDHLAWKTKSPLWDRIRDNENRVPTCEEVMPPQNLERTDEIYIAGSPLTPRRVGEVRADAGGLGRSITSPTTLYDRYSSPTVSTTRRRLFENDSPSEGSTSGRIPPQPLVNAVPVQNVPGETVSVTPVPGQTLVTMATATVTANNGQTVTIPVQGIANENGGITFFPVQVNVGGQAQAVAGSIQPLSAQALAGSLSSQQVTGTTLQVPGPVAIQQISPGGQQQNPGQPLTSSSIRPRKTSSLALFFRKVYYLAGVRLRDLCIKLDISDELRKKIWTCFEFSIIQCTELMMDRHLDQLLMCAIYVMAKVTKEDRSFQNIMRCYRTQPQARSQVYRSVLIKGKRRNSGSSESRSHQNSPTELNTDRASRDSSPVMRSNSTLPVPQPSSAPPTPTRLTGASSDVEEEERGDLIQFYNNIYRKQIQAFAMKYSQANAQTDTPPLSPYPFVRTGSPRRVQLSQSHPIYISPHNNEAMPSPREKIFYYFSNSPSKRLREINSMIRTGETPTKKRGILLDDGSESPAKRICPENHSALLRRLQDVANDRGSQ

| binding [1] | binding [2] | Substance |
| --- | --- | --- |
| binds | – | c-Raf (from UniProt Q99N57 1-648) (enzyme) |
| binds | – | histone deacetylase 1 (HDAC1) (from UniProt O09106 1-482) (enzyme) |
| binds | binds | aryl-hydrocarbon receptor (AhR) (from UniProt P30561 10-848) |
